The target of this test is mitochondrial Ca2+ uptake 1 (MICU1) (mouse (endogenous in C57BL6/J heart)) (UniProt Q8VCX5). The experiment in a line: co-IP; MICU1 antibody bound to protein A/G Plus Agarose; diluted mouse myocardial extracts, 4 °C for 2 h; IP buffer 150 mM NaCl, 1.5 mM MgCl2, 1 mM EGTA, 20 mM HEPES pH 7.4, 1% NP40; western blot for MICU1 and Tom70. (In general: Immunoblotting shows a protein as a band on a membrane.)

Sequences of proteins named here, by UniProt entry; tags and fusion partners are left off. A change or cut given only in a name is not applied to a line headed by its entry.
UniProt Q8VCX5: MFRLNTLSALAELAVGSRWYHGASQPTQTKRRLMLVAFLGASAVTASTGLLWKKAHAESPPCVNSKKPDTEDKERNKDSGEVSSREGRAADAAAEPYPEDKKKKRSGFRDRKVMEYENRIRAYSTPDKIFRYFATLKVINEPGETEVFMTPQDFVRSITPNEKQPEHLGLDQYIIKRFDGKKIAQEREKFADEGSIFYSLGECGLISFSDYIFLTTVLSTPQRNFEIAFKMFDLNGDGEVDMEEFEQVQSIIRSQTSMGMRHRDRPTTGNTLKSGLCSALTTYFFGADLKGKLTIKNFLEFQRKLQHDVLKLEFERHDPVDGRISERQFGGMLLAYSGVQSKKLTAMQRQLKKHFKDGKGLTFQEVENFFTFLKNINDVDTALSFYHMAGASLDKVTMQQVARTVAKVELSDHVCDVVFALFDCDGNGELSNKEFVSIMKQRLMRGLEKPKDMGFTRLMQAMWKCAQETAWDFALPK

No constants are given. Whether binding was seen depends on the method and setting. In cells and extracts the contact can be indirect. A result given as binding can be weak or reduced; the word gives no strength.

B1: Tom70 (protein, UniProt Q9CZW5 1-611)
chain: MAASKPIEAAMAAAAAPGSGNGVGGGGGTAGPGSGAGTLPRWHVALAIGAPLLLGAGAMYLWSRRRRRREAGGRGDASGLKRNSERKTPEGRASPALGSGHHDGSGDSLEMSSLDRAQAAKNKGNKYFKAGKYEQAIQCYTEAISLCPTEKNVDLSTFYQNRAAAFEQLQKWKEVAQDCTKAVELNPKYVKALFRRAKAHEKLDNKKECLEDVTAVCILEGFQNEQSMLLADKVLKLLGKENAKEKYKNREPLMPSPQFIKSYFSSFTDDIISQPMLKGEKSDEDKDKEGEALEVKENSGYLKAKQYMEEENYDKIISECSKEIDAQGKYMAEALLLRATFYLLIGSANAAKPDLDKVISLKEANVKLRANALIKRGTMCMQQQQPMLSTQDFNMAAEIDPMNSDVYHHRGQLKILLDLVEEAVADFDACIRLRPKFALAQAQKCFALYRQAYTANNSSQVQAAMKGFEEIIKKFPRCAEGYALYAQALTDQQQFGKADEMYDKCIDLEPDNATTYVHKGLLQLQWKQDLDKGLELISKAIEIDNKCDFAYETMGTIEVQRGNMEKAIDMFNKAINLAKSEMEMAHLYSLCDAAHAQTEVAKKYGLKPPTL
Regarding B1, the binding entry is on record as “binds”.
